From PMC11199475

Legend:
[1] = target: OsNRFG6, BiFC fusion (rice (Oryza sativa L.)); assay: split reporter; BiFC: nYFP and cYFP fusions (p2YN/C system) co-infected into Nicotiana benthamiana leaves; confocal microscopy 3-5 days post infection
[2] = target: OsNRFG6, LCI fusion (rice (Oryza sativa L.)); assay: split reporter; luciferase complementation imaging (LCI): nLUC and cLUC fusions (pCAMBIA1300) co-transformed into Nicotiana benthamiana leaves; 1 mM D-luciferin, CCD imaging at least 72 h post infiltration

| binding [1] | binding [2] | Binder |
| --- | --- | --- |
| binds |  | LOG, BiFC fusion (enzyme, UniProt Q5ZC82 1-242) MAMEAAAERSAGAGAAATAAPESGGGGAGERRSRFRRICVYCGSAKGRKASYQDAAVELGKELVERGIDLVYGGGSIGLMGLVSHAVHDGGRHVIGVIPKSLMPREVTGEPVGEVRAVSGMHERKAEMARFADAFIALPGGYGTLEELLEVITWAQLGIHKKPVGLLNVDGFYDPFLSFIDMAVSEGFIAEDARRIIISAPTARELVLKLEEYVPEYEVGLVWDDQMPHSFAPDLETRITSS |
|  | binds | LOG, LCI fusion (enzyme, UniProt Q5ZC82 1-242) MAMEAAAERSAGAGAAATAAPESGGGGAGERRSRFRRICVYCGSAKGRKASYQDAAVELGKELVERGIDLVYGGGSIGLMGLVSHAVHDGGRHVIGVIPKSLMPREVTGEPVGEVRAVSGMHERKAEMARFADAFIALPGGYGTLEELLEVITWAQLGIHKKPVGLLNVDGFYDPFLSFIDMAVSEGFIAEDARRIIISAPTARELVLKLEEYVPEYEVGLVWDDQMPHSFAPDLETRITSS |

These are yes or no findings as the source states them, for the method shown. In cells and extracts the contact can be indirect. Binding can be weak; no strength is given. Where a sequence is shown, tags or fusion partners need not be part of it.
